Part of at least one peptide drawing is inferred or uncertain, most often the ends.
Tests used:
HUVECs [1] = assay: in vitro angiogenic tube formation on gel matrix; assay type: cell-based; details: various concentrations (600 to 2.5 ng/mL), confocal microscopy
Procedure: Next, effect of TAT-ST011 peptide GNSALHVASQHG (SEQ ID NO: 2) on angiogenesis and tube formation of HUVEC cell was evaluated.
Extracellular matrix gel solution (Cell biolabs inc, San Diego, Calif., USA) had been thawed overnight at 4° C. and approximately […] of ECM gel solution was added to each well of a 96 well plate. The plate was incubated at 37° C. for 1 hour. HUVECs were trypsinized from culture and approximately 20,000 cells were added per well to the ECM containing 96 well plate. Each well was treated with […] of TAT-P12 at a concentration of 600 ng/mL, 300 ng/mL, 150 ng/mL, 5 ng/mL or 2.5 ng/mL. PBS was used as a control. The tube formation was visualized using a spinning disc confocal microscope and the images were stacked together using ImageJ.

[2] = test system: human endometriotic lesions; assay: mouse xenograft model of endometriosis, gross observation of lesion growth and vascularization; assay type: in vivo, mice; details: 20 mg/kg daily intraperitoneal for 21 days, necropsy one week after treatment, versus saline
HUVECs [3] = assay: WST-1 proliferation assay; assay type: cell-based; details: 600 ng/mL to 2.5 ng/mL, 48 hours of treatment, PBS control
Procedure: Endothelial cells are an integral part of blood vessels and the proliferation of endothelial cells is extremely important for angiogenesis. Therefore, to assess the role of α-synuclein in endothelial cell proliferation, HUVECs were plated and treated with various concentrations of TATST011 peptide GNSALHVASQHG (SEQ ID NO: 2) ranging from 600 ng/mL to 2.5 ng/mL using PBS as a control. In order to measure the effect of TAT-ST011 peptide GNSALHVASQHG (SEQ ID NO: 2) on HUVEC proliferation a WST-1 proliferation assay was performed.
HUVECs and epithelial cells were trypsinized, suspended in cultured medium and counted. Approximately 10,000 cells per well were seeded onto a 96 well plate. After allowing 24 hours for attachment in 37° C., the cells were treated with either 600 ng/mL, 300 ng/mL, 150 ng/mL, 5 ng/mL or 2.5 ng/mL of TAT-P12 using phosphate buffer saline (PBS, (Sigma Chemical Co., St. Louis, Mo., USA) as a control. The drug was suspended in RPMI. The plates were incubated in 37° C. for 24 or 48 hours after which 10 μL of WST-1 (Roche, Laval, QC, Canada) was added to each well. The plate was then incubated in 37° C. for another 4 hours. The absorbance of the wells was measured at a wavelength of 490 nm or at 510 nm.

Ac-GNSALHVASQHG-NH2 [ST011 peptide, GNSALHVASQHG]
tube formation / branching of HUVECs (HUVECs [1]): inhibition of branching of HUVEC cells | endometriotic lesion growth [2]: inhibition of human endometriotic lesion growth | proliferation of HUVECs (HUVECs [3]): inhibited proliferation of HUVECS in a dose dependent manner

Reference: patent US11103548B2, “Treatment of endometriosis, angiogenesis and/or endometrial lesion growth” (priority 2013, dated 2021)
